Measured values as given in US20030116748A1, “Environmentally friendly compositions having anti-icing, deicing or graffiti prevention properties” (priority 1995, published 2003).

Test: Material characterization (BOD5, COD, TOC)
Details: Standard Methods for the Examination of Water and Wastewater, 17th Edition; preliminary results

## OCC(O)CO [Glycerin, 1,2,3-Propanetriol]
  BOD5: 468 g/L
  COD: 1,290 g/L
  TOC: 402 g/L
